This passage reports binding results from article PMC6726657.

Sequences of proteins named here, by UniProt entry; tags and fusion partners are left off. A change or cut given only in a name is not applied to a line headed by its entry.
UniProt P60766: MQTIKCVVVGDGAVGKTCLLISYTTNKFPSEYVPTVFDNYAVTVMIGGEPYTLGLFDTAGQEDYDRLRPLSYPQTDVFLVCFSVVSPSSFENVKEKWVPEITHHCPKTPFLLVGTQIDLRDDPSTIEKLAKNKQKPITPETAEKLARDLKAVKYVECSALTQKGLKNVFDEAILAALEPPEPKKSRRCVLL
UniProt Q9QUI0: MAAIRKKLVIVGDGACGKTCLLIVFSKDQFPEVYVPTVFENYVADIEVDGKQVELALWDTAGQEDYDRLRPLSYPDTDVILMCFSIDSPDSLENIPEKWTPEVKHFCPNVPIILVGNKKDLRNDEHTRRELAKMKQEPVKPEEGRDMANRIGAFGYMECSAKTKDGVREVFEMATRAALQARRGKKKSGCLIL
UniProt Q9JKF1: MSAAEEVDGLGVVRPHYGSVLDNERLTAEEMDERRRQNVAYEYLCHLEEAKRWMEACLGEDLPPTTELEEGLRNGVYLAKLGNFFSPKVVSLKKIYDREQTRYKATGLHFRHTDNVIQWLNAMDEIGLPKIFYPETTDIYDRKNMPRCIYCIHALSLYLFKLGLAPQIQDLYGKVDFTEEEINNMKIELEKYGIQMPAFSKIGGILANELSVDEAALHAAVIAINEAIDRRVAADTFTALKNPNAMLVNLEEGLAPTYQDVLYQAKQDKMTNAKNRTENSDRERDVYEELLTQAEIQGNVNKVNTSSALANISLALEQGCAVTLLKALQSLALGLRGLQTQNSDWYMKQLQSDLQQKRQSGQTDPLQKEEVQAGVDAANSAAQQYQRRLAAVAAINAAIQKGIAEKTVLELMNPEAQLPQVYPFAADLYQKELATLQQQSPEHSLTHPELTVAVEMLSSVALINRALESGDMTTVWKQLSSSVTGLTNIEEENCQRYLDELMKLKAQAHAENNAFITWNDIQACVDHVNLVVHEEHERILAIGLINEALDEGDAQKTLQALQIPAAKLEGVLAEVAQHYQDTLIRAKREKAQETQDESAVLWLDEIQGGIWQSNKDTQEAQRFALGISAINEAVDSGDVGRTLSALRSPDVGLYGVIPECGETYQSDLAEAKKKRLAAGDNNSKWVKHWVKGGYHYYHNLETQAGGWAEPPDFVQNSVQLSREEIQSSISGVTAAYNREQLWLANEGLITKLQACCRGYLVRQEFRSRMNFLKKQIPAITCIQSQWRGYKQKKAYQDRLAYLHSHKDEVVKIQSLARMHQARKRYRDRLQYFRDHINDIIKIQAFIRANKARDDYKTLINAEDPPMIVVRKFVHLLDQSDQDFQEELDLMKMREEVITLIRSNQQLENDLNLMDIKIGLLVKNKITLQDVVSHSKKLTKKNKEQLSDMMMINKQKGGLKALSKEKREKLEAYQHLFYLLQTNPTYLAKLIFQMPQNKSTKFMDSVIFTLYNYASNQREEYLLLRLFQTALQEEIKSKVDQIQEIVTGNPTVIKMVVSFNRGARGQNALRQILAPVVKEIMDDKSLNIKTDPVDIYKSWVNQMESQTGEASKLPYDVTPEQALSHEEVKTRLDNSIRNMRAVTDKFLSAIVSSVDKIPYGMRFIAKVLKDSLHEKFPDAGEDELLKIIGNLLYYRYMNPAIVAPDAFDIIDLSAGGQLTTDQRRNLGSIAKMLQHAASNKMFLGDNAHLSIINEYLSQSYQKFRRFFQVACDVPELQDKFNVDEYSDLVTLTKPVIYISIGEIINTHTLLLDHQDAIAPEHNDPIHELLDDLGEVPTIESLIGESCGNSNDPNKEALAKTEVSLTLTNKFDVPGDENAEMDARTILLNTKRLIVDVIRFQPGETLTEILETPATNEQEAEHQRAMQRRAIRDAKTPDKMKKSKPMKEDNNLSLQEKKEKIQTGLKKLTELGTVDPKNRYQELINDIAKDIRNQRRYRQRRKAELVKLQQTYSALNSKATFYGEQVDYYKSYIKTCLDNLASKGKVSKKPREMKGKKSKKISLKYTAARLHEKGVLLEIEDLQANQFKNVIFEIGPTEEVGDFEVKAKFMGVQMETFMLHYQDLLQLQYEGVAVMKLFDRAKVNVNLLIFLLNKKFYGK
UniProt Q60610: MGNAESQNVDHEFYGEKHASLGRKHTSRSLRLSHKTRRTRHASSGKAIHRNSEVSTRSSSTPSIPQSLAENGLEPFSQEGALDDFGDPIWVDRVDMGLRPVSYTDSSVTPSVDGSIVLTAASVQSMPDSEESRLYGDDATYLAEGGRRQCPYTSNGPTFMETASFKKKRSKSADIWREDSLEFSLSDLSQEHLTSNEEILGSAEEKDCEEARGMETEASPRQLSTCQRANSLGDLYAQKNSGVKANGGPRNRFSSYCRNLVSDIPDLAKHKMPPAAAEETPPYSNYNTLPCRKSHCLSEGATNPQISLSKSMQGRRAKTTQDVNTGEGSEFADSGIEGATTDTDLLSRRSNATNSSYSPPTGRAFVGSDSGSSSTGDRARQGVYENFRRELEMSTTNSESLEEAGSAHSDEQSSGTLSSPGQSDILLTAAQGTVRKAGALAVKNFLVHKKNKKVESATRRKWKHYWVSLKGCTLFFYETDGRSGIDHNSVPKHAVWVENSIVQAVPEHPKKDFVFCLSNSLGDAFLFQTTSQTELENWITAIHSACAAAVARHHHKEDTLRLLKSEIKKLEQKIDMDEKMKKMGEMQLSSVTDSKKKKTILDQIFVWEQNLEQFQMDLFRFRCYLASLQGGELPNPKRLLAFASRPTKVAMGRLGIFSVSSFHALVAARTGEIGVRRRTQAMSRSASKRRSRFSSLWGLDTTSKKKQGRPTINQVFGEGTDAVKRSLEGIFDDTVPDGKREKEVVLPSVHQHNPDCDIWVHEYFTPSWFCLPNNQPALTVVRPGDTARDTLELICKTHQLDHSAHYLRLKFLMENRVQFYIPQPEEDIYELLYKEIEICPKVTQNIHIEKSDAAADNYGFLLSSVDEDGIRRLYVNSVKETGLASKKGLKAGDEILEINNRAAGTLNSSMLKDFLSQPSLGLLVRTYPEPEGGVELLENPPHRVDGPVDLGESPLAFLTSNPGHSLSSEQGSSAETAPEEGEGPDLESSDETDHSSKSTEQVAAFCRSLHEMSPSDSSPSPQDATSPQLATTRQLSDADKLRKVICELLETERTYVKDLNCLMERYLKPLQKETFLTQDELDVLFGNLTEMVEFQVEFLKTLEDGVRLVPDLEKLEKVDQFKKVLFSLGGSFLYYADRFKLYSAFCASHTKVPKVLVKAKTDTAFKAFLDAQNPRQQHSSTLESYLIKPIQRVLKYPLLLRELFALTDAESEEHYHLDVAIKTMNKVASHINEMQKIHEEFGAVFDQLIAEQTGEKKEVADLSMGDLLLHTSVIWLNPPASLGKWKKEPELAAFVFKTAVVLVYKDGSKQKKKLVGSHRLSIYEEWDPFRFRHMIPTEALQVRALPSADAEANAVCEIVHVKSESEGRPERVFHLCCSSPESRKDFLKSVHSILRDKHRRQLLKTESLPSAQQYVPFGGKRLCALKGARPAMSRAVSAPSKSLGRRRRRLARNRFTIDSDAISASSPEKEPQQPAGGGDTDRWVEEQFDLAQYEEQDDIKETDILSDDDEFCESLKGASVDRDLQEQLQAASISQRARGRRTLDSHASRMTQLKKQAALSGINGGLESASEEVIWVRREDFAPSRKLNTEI

Common to all, as to test: co-IP; lysates of bone marrow macrophages of Pggt1b^Δ/Δ and control mice; 25 mM Tris-HCl pH 7.4, 150 mM NaCl, 1 mM EDTA, 1% NP-40, 5% glycerol; IP with antibodies to Rac1, Cdc42, RhoA, Iqgap1 or Tiam1 on Dynabeads Protein G, western blot, densitometry
A general note: Immunoblotting shows a protein as a band on a membrane.

The target in assay [1] is nonprenylated Cdc42 (in Pggt1b^Δ/Δ macrophages) (mouse (endogenous in bone marrow macrophages)) (UniProt P60766).
Assay [2] addresses nonprenylated RhoA (in Pggt1b^Δ/Δ macrophages) (mouse (endogenous in bone marrow macrophages)) (UniProt Q9QUI0).
Assay [3] addresses Ras GTPase-activating-like protein Iqgap1 (mouse (endogenous in bone marrow macrophages)) (UniProt Q9JKF1).

These are yes or no findings as the source states them, for the method shown. Binding seen in cells or lysates may run through a third protein. Some binding calls cover weakened binding; strength is not graded here.

With “Ras GTPase-activating-like protein Iqgap1 (from UniProt Q9JKF1 1-1657)”, the binding entry in assay [1] and in assay [2] was “binds” in each case.
In the case of Tiam1 (from UniProt Q60610 1-1591), in assay [3], the binding entry is given as “binds”.
